Results are given in words; binding and its absence hold for the method and conditions named. Some entries that bind do so weakly or less than the wild type.
Target: curculin B expressed in Escherichia coli and refolded (subunit of homodimer curculin) (Curculigo latifolia) (UniProt P19667)
Assay: SDS-PAGE under reducing and non-reducing conditions, CBB staining, refolded E. coli protein

binding: binds
B1: curculin B expressed in Escherichia coli and refolded (subunit of homodimer curculin) (protein)
chain: DNVLLSGQTLHADHSLQAGAYTLTIQNKCNLVKYQNGRQIWASNTDRRGSGCRLTLLSDGNLVIYDHNNNDVWGSACWGDNGKYALVLQKDGRFVIYGPVLWSLGPNGCRRVNG
